To fix the notation:
B1: ribosomal protein uS15 (Drosophila) (protein, UniProt Q03334 1-151)
chain: MGRMHAPGKGISQSALPYRRTVPSWLKLNADDVKEQIKKLGKKGLTPSKIGIILRDSHGVAQVRFVNGNKILRIMKSVGLKPDIPEDLYHMIKKAVAIRKHLERNRKDKDGKFRLILVESRIHRLARYYKTKSVLPPNWKYESSTASALVA
B2: ribosomal protein uS15 (C. elegans) (protein, UniProt P51404 1-151)
chain: MGRMHNPGKGMAKSAIPYRRSVPSWQKMTAEEVQDQIVKMAKKGLRPSQIGVILRDSHGVGQVRRLAGNKIFRILKSKGMAPELPEDLYHLVKKAVAIRKHLERSRKDIDSKYRLILVESRIHRLARYYKTKRQLPPTWKYESGTAASLVS
B3: ribosomal protein uS3 (C. elegans) (protein, UniProt P48152 1-247)
chain: MAANQNVTKKKKAVIGGIFKAELNNFLMKELAEDGYSGVEVRSTPARAEVIIMATRTQNVLGERGRRIKELTSVVQKRFGFEEGSVELYAEKVSNRGLCAVAQCESLRYKLVGGLAVRRACYGVLRFIMESGAQGVEVIVSGKLRGQRAKAMKFVDGLMIHSGHPVNDYIQQAVRHVQLRQGVIGIKVKIMLPYDPRGQNGPRNALPDHVQIVEPQEEVLPKEPHSQHKEEKKDVQVPAAQPVAPVQ

Sequences of proteins named here, by UniProt entry; tags and fusion partners are left off.
UniProt O16797: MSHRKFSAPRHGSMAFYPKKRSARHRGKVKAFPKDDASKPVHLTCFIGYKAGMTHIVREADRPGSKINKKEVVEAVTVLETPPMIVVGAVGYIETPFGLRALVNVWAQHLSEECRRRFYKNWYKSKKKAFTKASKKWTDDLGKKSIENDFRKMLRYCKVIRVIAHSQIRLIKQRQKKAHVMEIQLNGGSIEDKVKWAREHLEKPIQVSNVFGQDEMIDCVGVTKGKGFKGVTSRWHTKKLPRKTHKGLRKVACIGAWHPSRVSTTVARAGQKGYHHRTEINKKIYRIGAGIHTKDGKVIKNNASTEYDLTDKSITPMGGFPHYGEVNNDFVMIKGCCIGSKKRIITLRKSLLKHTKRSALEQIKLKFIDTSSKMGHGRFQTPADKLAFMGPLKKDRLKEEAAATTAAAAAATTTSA
UniProt P50880: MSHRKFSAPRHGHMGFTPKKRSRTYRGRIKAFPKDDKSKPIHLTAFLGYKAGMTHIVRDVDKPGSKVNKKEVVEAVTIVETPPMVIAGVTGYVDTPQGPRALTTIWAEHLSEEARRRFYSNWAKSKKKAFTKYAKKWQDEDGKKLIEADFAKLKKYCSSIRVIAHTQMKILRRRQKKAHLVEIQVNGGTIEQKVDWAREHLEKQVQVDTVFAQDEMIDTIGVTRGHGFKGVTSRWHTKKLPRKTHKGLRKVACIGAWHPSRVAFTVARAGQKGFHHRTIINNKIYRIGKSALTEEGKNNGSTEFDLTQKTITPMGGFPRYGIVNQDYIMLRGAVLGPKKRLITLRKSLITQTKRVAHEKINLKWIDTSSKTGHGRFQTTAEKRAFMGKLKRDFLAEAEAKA

These are yes or no findings as the source states them, for the method shown. Binding seen in cells or lysates may run through a third protein. Some results given as binding are weak or reduced against the parent protein; the word gives no strength.

The target of one experiment is T1, ribosomal P-stalk, P0-(P1-P2)2 complex (Drosophila) (Drosophila (endogenous in S2 cells)) (UniProt P19889+P08570+P05389).
T1 sequence 1: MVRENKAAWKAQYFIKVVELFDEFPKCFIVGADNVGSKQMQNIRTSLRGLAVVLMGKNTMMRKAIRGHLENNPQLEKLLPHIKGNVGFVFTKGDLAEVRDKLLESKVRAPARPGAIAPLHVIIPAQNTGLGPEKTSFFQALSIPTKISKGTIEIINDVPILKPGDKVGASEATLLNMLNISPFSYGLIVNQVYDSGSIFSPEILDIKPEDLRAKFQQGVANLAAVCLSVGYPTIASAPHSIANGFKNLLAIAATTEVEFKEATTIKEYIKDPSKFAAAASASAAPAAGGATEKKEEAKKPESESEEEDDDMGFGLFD
T1 sequence 2: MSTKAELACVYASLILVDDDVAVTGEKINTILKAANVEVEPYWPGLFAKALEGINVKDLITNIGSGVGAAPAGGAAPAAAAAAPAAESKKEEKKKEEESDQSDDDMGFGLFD
T1 sequence 3: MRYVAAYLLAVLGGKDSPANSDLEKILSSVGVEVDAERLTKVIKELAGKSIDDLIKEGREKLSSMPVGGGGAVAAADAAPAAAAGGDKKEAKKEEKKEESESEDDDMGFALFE
The experiment in a line: co-IP; IP with 9D5 and Dynabeads Protein G from Drosophila S2 cell lysate, 4°C; 50 mM HEPES-NaOH pH 7.5, 10 mM MgCl2, 150 mM NaCl, 1% NP-40, cycloheximide; legend: in the presence of RNase A; western blotting. A general note: A western blot detects proteins with antibodies after separation by electrophoresis.
Consider “ribosomal protein uL3 (Drosophila) (from UniProt O16797 1-416)”, for which the binding entry was “binds”.
The same measure, in the same setting: under “ribosomal protein uS3 (Drosophila) (from UniProt Q06559 1-246)” stands “binds”; under B1, “binds”.

A further experiment has as its target T2, ribosomal P-stalk, P0-(P1-P2)2 complex (C. elegans) (C. elegans (endogenous in worms)) (UniProt Q93572+P91913+O01504).
T2 sequence 1: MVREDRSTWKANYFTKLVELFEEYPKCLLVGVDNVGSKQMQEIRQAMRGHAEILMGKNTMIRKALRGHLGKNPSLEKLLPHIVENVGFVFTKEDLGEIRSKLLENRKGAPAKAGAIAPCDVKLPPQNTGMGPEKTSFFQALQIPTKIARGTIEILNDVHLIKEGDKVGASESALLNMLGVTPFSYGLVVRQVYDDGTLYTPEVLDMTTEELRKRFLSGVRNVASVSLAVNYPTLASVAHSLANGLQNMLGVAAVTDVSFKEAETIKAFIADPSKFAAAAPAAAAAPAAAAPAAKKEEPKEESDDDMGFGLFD
T2 sequence 2: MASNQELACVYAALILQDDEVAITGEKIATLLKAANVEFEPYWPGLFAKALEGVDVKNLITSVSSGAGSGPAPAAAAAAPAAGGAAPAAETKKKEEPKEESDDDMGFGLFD
T2 sequence 3: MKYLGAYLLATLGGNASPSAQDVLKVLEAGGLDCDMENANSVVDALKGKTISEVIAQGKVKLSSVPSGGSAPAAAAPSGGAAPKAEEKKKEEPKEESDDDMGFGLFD
The experiment in a line: co-IP; IP with 9D5 and Dynabeads Protein G from sonicated C. elegans lysate, 4°C; 50 mM HEPES-NaOH pH 7.5, 10 mM MgCl2, 150 mM NaCl, 1% NP-40, cycloheximide; legend: in the presence of RNase A; western blotting.
Turning to “ribosomal protein uL3 (C. elegans) (from UniProt P50880 1-401)”, the binding result is “binds”.
Consider B2, for which the binding entry is given as “binds”.
For the molecule B3, the binding result is on record as “binds”.
